The list shows a part of the results. Repeats are few or missing, and single values can be far off.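 Imaging used 1,536-well plates; nuclei positive for cleaved PARP by antibody were divided by total DNA-stained nuclei to yield the apoptosis fraction. Doses for screening kept most cells viable, and cell lines differ markedly in resting and induced cleaved-PARP levels.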
These compounds were tested on MZ2-MEL (assay: cleaved PARP positive nuclei fraction relative to DMSO control; melanoma cells; higher = more apoptosis). Conditions: library dose: low library concentration; 72 h.

Structure (SMILES)	cleaved PARP positive nuclei fraction [%]
CO[C@H]1C[C@@H]2CC[C@@H](C)[C@@](O)(O2)C(=O)C(=O)N2CCCC[C@H]2C(=O)O[C@H]([C@H](C)C[C@@H]2CC[C@@H](OCCO)[C@H](OC)C2)CC(=O)[C@H](C)/C=C(\C)[C@@H](O)[C@@H](OC)C(=O)[C@H](C)C[C@H](C)/C=C/C=C/C=C/1C [everolimus] + Cn1c(Nc2ccc(C(F)(F)F)cc2)nc2cc(Oc3ccnc(-c4ncc(C(F)(F)F)[nH]4)c3)ccc21 [CHIR265] (first compound 0.02 µM, partner dose 0.08 µM)	248
CO[C@H]1C[C@@H]2CC[C@@H](C)[C@@](O)(O2)C(=O)C(=O)N2CCCC[C@H]2C(=O)O[C@H]([C@H](C)C[C@@H]2CC[C@@H](OCCO)[C@H](OC)C2)CC(=O)[C@H](C)/C=C(\C)[C@@H](O)[C@@H](OC)C(=O)[C@H](C)C[C@H](C)/C=C/C=C/C=C/1C [everolimus] + COc1cc2ncnc(Nc3ccc(Oc4ccccc4)cc3)c2cc1OC [SrcI1] (first compound 0.02 µM, partner dose 2 µM)	155
CO[C@H]1C[C@@H]2CC[C@@H](C)[C@@](O)(O2)C(=O)C(=O)N2CCCC[C@H]2C(=O)O[C@H]([C@H](C)C[C@@H]2CC[C@@H](OCCO)[C@H](OC)C2)CC(=O)[C@H](C)/C=C(\C)[C@@H](O)[C@@H](OC)C(=O)[C@H](C)C[C@H](C)/C=C/C=C/C=C/1C [everolimus] + CN(NC(=O)CC(=O)NN(C)C(=S)c1ccccc1)C(=S)c1ccccc1 [STA4783] (first compound 0.02 µM, partner dose 0.006 µM)	187
CO[C@H]1C[C@@H]2CC[C@@H](C)[C@@](O)(O2)C(=O)C(=O)N2CCCC[C@H]2C(=O)O[C@H]([C@H](C)C[C@@H]2CC[C@@H](OCCO)[C@H](OC)C2)CC(=O)[C@H](C)/C=C(\C)[C@@H](O)[C@@H](OC)C(=O)[C@H](C)C[C@H](C)/C=C/C=C/C=C/1C [everolimus] + CCCCCCCCCCCC1=C(O)C(=O)C=C(O)C1=O [Embelin] (first compound 0.02 µM, partner dose 1.2 µM)	124
CO[C@H]1C[C@@H]2CC[C@@H](C)[C@@](O)(O2)C(=O)C(=O)N2CCCC[C@H]2C(=O)O[C@H]([C@H](C)C[C@@H]2CC[C@@H](OCCO)[C@H](OC)C2)CC(=O)[C@H](C)/C=C(\C)[C@@H](O)[C@@H](OC)C(=O)[C@H](C)C[C@H](C)/C=C/C=C/C=C/1C [everolimus] + COC(=O)c1sccc1S(=O)(=O)Nc1ccc(Nc2ccccc2)cc1OC [GSK0660] (first compound 0.02 µM, partner dose 1 µM)	89.7
CO[C@H]1C[C@@H]2CC[C@@H](C)[C@@](O)(O2)C(=O)C(=O)N2CCCC[C@H]2C(=O)O[C@H]([C@H](C)C[C@@H]2CC[C@@H](OCCO)[C@H](OC)C2)CC(=O)[C@H](C)/C=C(\C)[C@@H](O)[C@@H](OC)C(=O)[C@H](C)C[C@H](C)/C=C/C=C/C=C/1C [everolimus] + C[C@@H]1CCN(C(=O)CC#N)C[C@@H]1N(C)c1ncnc2[nH]ccc12 [CP690550] (first compound 0.02 µM, partner dose 1 µM)	130
CO[C@H]1C[C@@H]2CC[C@@H](C)[C@@](O)(O2)C(=O)C(=O)N2CCCC[C@H]2C(=O)O[C@H]([C@H](C)C[C@@H]2CC[C@@H](OCCO)[C@H](OC)C2)CC(=O)[C@H](C)/C=C(\C)[C@@H](O)[C@@H](OC)C(=O)[C@H](C)C[C@H](C)/C=C/C=C/C=C/1C [everolimus] + Oc1cc(-c2nc(-c3ccccc3)[nH]c2-c2ccncc2)ccc1Cl [L779450] (first compound 0.02 µM, partner dose 0.2 µM)	195
CO[C@H]1C[C@@H]2CC[C@@H](C)[C@@](O)(O2)C(=O)C(=O)N2CCCC[C@H]2C(=O)O[C@H]([C@H](C)C[C@@H]2CC[C@@H](OCCO)[C@H](OC)C2)CC(=O)[C@H](C)/C=C(\C)[C@@H](O)[C@@H](OC)C(=O)[C@H](C)C[C@H](C)/C=C/C=C/C=C/1C [everolimus] + Cn1cncc1[C@@](N)(c1ccc(Cl)cc1)c1ccc2c(c1)c(-c1cccc(Cl)c1)cc(=O)n2C [tipifarnib] (first compound 0.02 µM, partner dose 0.01 µM)	131
CO[C@H]1C[C@@H]2CC[C@@H](C)[C@@](O)(O2)C(=O)C(=O)N2CCCC[C@H]2C(=O)O[C@H]([C@H](C)C[C@@H]2CC[C@@H](OCCO)[C@H](OC)C2)CC(=O)[C@H](C)/C=C(\C)[C@@H](O)[C@@H](OC)C(=O)[C@H](C)C[C@H](C)/C=C/C=C/C=C/1C [everolimus] + NCC(=O)Nc1ccc(-n2nc(C(F)(F)F)cc2-c2ccc3c(ccc4ccccc43)c2)cc1 [OSU03012] (first compound 0.02 µM, partner dose 1 µM)	99.5
CO[C@H]1C[C@@H]2CC[C@@H](C)[C@@](O)(O2)C(=O)C(=O)N2CCCC[C@H]2C(=O)O[C@H]([C@H](C)C[C@@H]2CC[C@@H](OCCO)[C@H](OC)C2)CC(=O)[C@H](C)/C=C(\C)[C@@H](O)[C@@H](OC)C(=O)[C@H](C)C[C@H](C)/C=C/C=C/C=C/1C [everolimus] + NC(=O)Nc1cc(-c2cccc(F)c2)sc1C(=O)N[C@H]1CCCNC1 [AZD7762] (first compound 0.02 µM, partner dose 0.02 µM)	43.4
CO[C@H]1C[C@@H]2CC[C@@H](C)[C@@](O)(O2)C(=O)C(=O)N2CCCC[C@H]2C(=O)O[C@H]([C@H](C)C[C@@H]2CC[C@@H](OCCO)[C@H](OC)C2)CC(=O)[C@H](C)/C=C(\C)[C@@H](O)[C@@H](OC)C(=O)[C@H](C)C[C@H](C)/C=C/C=C/C=C/1C [everolimus] + O=C(Nc1ccccc1)c1cc([N+](=O)[O-])ccc1Cl [GW9662] (first compound 0.02 µM, partner dose 2 µM)	73.3
CO[C@H]1C[C@@H]2CC[C@@H](C)[C@@](O)(O2)C(=O)C(=O)N2CCCC[C@H]2C(=O)O[C@H]([C@H](C)C[C@@H]2CC[C@@H](OCCO)[C@H](OC)C2)CC(=O)[C@H](C)/C=C(\C)[C@@H](O)[C@@H](OC)C(=O)[C@H](C)C[C@H](C)/C=C/C=C/C=C/1C [everolimus] + O=C1NC(=O)/C(=C/c2ccc(-c3ccc(F)cc3O)o2)S1 [AS252424] (first compound 0.02 µM, partner dose 1 µM)	104
O=C(O)[C@@H]1[O][Sb](=[O])([O][Sb]2(=[O])[O][C@H]([C@H](O)CO)[C@H](O)[C@H](C(=O)O)[O]2)[O][C@H]([C@H](O)CO)[C@@H]1O (some centres not stated) [stibogluconate] + Clc1ccc(Nc2nnc(Cc3ccncc3)c3ccccc23)cc1 [vatalanib] (first compound 2 µM, partner dose 2 µM)	106
CO[C@H]1C[C@@H]2CC[C@@H](C)[C@@](O)(O2)C(=O)C(=O)N2CCCC[C@H]2C(=O)O[C@H]([C@H](C)C[C@@H]2CC[C@@H](OCCO)[C@H](OC)C2)CC(=O)[C@H](C)/C=C(\C)[C@@H](O)[C@@H](OC)C(=O)[C@H](C)C[C@H](C)/C=C/C=C/C=C/1C [everolimus] + O=C(CCCCCCC(=O)Nc1ccccc1)NO [vorinostat] (first compound 0.02 µM, partner dose 0.08 µM)	276
CO[C@H]1C[C@@H]2CC[C@@H](C)[C@@](O)(O2)C(=O)C(=O)N2CCCC[C@H]2C(=O)O[C@H]([C@H](C)C[C@@H]2CC[C@@H](OCCO)[C@H](OC)C2)CC(=O)[C@H](C)/C=C(\C)[C@@H](O)[C@@H](OC)C(=O)[C@H](C)C[C@H](C)/C=C/C=C/C=C/1C [everolimus] + Clc1ccc(Nc2nnc(Cc3ccncc3)c3ccccc23)cc1 [vatalanib] (first compound 0.02 µM, partner dose 2 µM)	64
CO[C@H]1C[C@@H]2CC[C@@H](C)[C@@](O)(O2)C(=O)C(=O)N2CCCC[C@H]2C(=O)O[C@H]([C@H](C)C[C@@H]2CC[C@@H](OCCO)[C@H](OC)C2)CC(=O)[C@H](C)/C=C(\C)[C@@H](O)[C@@H](OC)C(=O)[C@H](C)C[C@H](C)/C=C/C=C/C=C/1C [everolimus] + O=C(O)c1ccc2c(c1)nc(Nc1cccc(Cl)c1)c1ccncc12 [CX4945] (first compound 0.02 µM, partner dose 0.4 µM)	106
CO[C@H]1C[C@@H]2CC[C@@H](C)[C@@](O)(O2)C(=O)C(=O)N2CCCC[C@H]2C(=O)O[C@H]([C@H](C)C[C@@H]2CC[C@@H](OCCO)[C@H](OC)C2)CC(=O)[C@H](C)/C=C(\C)[C@@H](O)[C@@H](OC)C(=O)[C@H](C)C[C@H](C)/C=C/C=C/C=C/1C [everolimus] + CNC(=O)c1cc(Oc2ccc(NC(=O)Nc3ccc(Cl)c(C(F)(F)F)c3)cc2)ccn1 [sorafenib] (first compound 0.02 µM, partner dose 0.4 µM)	93.1
